Reference: article PMC2453235, “Identification and Rational Redesign of Peptide Ligands to CRIP1, A Novel Biomarker for Cancers” (PLoS Computational Biology, 2008)
These are yes or no findings as the source states them, for the method shown. Some entries that bind do so weakly or less than the wild type.

Biological target: T1, Cysteine-rich intestinal protein 1 (CRIP1), purified chimeric protein not reacted with enterokinase (human) (UniProt P50238)
T1 sequence: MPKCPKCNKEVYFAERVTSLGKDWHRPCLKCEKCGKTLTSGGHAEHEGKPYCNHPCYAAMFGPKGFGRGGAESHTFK
Experiment: ELISA; individual phage clones against immobilised purified chimeric CRIP1 (not reacted with enterokinase); relative binding affinities; only the target purified

Binder | binding
CLKDNHRSCGGGS [phage clone A1 (peptide displayed on pIII)] | binds
CYDPIWRTCGGGS [phage clone B5 (peptide displayed on pIII)] | binds
CTPRQSPICGGGS [phage clone C5 (peptide displayed on pIII)] | binds
